Earlier results on 3 compounds are cited in publication PMC6651381 (Molecules, 2019).

The data set concerns mice. Details: method as in PMID 25446027. The settings on record: protective index, i.p., ratio TD50 / ED50, cited from earlier work.

Read-outs that look alike come from different tables or passages of the source. Marks after values point to notes of the source that are not given here.

For `Cc1cc(OCCNC2CCCCC2O)ccc1Cl` (centres unmarked) [Compound 3], the “PI(MES)” value is 2.839 ^#. The “PI(MES)” value (listed as racemate) is listed as 2.83.
As for `Cc1cc(OCCN[C@@H]2CCCC[C@H]2O)ccc1Cl` [Compound 1], the “PI(MES)” value is recorded as 1.722 ^#. The “PI(MES)” value (listed as R enantiomer) was 1.72.
`CCCC(CCC)C(=O)O` [VPA, valproate, reference compound]: the “PI(MES)” value is listed as 1.70 ^#.
